From article PMC9638933
These are yes or no findings as the source states them, for the method shown.

Protein sequences, listed by entry. Tags and fused reporters are not part of them.
UniProt P9WNV3: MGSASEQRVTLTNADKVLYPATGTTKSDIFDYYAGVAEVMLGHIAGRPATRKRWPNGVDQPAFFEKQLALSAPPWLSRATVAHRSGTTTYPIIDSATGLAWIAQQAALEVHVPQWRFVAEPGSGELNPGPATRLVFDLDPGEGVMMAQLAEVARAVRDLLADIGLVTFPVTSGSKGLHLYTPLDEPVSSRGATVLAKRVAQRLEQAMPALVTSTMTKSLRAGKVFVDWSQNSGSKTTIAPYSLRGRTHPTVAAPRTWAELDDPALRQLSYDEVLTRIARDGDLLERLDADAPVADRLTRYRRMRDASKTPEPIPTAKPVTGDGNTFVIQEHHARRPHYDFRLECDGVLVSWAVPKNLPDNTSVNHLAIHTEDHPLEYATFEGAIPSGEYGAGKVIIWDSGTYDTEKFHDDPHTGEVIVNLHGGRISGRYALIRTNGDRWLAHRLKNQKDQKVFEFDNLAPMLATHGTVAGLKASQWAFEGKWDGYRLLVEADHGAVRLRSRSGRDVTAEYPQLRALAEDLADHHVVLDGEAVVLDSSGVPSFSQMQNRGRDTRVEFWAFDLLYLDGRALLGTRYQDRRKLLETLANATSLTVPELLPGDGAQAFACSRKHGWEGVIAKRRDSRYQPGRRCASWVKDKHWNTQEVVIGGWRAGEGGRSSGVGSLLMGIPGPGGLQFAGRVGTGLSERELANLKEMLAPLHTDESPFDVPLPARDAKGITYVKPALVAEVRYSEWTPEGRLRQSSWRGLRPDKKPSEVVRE

Target: Mycobacterium tuberculosis LigD, wildtype (M. tuberculosis) (UniProt P9WNV3)
Experiment: SEC-MALS; 50 uM protein; 50 mM HEPES pH 8.0, 1 mM EDTA, 200 mM NaCl; Superdex 200 Increase 10/300 GL; both purified

Substance: Mycobacterium tuberculosis LigD, wildtype (from UniProt P9WNV3 1-759) (enzyme)
- binding: no binding (tested: 50 uM)
